Test results reported in the supplement of paper PMC12067093, “Discovery and optimisation of a covalent ligand for TRIM25 and its application to targeted protein ubiquitination” (Chemical Science, 2025).
The list shows a part of the results.

Amino acid sequences for entries named in this document (tags omitted). A change or cut given only in a name is not applied to a line headed by its entry.
UniProt Q8IZP0: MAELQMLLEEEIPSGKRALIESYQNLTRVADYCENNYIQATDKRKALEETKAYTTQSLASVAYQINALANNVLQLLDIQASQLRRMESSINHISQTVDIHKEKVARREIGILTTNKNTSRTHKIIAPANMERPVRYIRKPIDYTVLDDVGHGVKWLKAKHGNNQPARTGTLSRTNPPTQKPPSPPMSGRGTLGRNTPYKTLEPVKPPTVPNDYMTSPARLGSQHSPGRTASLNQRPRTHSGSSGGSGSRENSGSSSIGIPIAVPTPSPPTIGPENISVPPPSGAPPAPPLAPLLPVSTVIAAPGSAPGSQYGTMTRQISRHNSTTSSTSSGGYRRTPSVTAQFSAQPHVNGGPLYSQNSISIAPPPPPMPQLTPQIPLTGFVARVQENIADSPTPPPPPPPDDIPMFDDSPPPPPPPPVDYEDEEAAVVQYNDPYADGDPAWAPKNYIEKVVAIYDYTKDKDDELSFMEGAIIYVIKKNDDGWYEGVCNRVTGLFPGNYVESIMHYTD
UniProt Q9P1F3: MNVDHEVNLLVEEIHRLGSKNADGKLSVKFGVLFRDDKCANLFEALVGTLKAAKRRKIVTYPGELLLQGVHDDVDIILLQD
UniProt Q9UG63: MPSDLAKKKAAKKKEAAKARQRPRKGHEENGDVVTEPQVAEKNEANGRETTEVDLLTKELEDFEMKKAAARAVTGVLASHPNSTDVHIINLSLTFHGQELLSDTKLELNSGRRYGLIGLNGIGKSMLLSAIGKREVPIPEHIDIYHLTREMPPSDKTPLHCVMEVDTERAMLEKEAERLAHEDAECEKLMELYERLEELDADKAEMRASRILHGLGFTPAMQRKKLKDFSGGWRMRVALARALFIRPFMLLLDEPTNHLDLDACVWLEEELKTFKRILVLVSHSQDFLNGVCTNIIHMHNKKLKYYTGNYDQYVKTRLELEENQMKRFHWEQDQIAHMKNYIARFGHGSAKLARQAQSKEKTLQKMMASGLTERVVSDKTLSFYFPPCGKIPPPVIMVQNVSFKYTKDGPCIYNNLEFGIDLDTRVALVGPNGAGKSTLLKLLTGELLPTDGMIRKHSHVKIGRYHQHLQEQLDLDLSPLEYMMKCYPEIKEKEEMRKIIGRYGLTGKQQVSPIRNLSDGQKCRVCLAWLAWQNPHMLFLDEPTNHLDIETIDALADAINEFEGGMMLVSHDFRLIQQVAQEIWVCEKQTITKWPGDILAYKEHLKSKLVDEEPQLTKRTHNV
UniProt Q6UXT9: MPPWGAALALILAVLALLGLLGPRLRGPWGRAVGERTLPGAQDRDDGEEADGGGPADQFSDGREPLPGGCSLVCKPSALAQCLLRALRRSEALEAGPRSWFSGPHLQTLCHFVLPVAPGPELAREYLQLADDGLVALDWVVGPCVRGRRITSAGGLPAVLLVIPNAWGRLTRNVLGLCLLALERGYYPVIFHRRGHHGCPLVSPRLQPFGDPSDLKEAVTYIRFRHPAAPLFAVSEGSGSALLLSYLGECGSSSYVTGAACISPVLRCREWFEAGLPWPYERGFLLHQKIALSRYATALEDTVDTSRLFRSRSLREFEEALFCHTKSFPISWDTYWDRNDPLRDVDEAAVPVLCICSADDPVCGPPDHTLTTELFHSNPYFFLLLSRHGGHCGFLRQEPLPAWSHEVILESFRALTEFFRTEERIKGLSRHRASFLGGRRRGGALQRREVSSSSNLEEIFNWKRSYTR
UniProt O00154: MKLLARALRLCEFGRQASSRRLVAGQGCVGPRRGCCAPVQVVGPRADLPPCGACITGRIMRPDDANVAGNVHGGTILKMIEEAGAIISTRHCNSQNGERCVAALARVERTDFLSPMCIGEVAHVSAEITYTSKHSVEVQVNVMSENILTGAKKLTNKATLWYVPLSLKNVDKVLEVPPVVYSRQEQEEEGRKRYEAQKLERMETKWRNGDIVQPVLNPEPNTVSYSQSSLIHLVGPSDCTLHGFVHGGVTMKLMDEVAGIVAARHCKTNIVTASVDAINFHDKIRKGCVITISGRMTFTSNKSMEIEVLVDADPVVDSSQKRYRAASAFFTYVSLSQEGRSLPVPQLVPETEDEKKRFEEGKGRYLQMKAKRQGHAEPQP
UniProt Q9BR61: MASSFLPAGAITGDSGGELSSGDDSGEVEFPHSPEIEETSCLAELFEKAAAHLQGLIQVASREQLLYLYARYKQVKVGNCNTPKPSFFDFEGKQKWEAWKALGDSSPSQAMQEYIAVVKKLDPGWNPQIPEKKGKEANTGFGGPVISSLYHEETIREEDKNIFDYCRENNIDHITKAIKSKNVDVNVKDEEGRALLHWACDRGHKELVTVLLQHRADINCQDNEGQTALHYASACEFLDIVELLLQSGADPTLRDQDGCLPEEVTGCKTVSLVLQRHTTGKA
UniProt Q9H3P7: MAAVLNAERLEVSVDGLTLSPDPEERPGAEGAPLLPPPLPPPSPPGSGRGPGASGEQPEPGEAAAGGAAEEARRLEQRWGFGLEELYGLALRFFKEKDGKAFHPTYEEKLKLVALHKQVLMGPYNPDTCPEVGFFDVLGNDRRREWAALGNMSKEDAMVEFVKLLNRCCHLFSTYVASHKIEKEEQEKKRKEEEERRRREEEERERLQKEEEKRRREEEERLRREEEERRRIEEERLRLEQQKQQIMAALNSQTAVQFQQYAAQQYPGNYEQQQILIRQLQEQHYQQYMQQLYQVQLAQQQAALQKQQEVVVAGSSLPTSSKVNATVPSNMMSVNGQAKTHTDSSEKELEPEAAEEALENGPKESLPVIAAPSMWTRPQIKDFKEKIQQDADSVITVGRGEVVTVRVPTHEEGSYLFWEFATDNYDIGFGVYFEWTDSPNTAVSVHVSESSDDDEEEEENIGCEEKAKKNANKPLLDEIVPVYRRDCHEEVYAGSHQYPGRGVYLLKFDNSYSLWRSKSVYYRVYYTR
UniProt Q12979: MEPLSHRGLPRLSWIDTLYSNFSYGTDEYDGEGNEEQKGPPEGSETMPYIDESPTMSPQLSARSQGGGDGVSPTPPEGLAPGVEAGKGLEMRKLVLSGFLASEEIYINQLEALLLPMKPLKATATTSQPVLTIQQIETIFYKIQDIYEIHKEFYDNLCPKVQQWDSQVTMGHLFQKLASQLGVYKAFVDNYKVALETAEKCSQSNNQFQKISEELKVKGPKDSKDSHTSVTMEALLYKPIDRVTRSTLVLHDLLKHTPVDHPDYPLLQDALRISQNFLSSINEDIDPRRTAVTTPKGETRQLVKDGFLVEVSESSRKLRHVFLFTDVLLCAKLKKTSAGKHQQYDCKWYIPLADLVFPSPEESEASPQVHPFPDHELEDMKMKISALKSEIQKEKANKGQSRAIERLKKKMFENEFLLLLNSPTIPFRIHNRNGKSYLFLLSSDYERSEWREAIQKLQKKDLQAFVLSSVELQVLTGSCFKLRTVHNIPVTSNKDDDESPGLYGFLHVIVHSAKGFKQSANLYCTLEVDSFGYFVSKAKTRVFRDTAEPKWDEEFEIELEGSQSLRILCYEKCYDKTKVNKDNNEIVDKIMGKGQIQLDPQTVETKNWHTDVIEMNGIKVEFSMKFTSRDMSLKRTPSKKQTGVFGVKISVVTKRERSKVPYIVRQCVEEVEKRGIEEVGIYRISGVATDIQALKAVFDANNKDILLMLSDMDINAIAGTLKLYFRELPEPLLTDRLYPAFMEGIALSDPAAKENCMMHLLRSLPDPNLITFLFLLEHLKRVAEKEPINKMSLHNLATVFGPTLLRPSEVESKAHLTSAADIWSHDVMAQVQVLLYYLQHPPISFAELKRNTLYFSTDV
UniProt O95870: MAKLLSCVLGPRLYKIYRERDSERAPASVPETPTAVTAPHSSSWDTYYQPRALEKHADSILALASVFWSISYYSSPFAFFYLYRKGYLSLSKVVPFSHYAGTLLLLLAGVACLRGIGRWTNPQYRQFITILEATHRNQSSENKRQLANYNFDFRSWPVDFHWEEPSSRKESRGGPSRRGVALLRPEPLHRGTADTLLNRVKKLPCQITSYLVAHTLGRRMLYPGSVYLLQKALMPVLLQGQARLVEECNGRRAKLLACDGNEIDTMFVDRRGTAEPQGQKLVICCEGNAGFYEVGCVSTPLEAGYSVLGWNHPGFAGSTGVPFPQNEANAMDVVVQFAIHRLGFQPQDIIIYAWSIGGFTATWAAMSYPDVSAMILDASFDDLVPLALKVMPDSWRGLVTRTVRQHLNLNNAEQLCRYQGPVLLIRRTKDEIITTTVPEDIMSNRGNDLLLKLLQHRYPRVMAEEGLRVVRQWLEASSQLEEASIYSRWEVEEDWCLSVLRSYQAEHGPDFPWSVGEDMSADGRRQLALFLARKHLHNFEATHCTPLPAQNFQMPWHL
UniProt P24752: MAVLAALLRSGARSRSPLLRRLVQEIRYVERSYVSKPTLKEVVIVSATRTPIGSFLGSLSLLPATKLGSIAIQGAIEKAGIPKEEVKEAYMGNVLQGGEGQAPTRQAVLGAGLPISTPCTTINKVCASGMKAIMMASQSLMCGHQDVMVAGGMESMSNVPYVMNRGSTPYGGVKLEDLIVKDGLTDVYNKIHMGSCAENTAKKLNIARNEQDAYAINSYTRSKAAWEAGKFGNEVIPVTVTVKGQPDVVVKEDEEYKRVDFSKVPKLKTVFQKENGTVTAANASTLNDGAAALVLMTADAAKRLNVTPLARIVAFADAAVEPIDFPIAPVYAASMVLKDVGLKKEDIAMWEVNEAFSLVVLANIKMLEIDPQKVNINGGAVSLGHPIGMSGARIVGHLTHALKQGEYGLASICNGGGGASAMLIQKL
UniProt P42684, whole entry, looked up: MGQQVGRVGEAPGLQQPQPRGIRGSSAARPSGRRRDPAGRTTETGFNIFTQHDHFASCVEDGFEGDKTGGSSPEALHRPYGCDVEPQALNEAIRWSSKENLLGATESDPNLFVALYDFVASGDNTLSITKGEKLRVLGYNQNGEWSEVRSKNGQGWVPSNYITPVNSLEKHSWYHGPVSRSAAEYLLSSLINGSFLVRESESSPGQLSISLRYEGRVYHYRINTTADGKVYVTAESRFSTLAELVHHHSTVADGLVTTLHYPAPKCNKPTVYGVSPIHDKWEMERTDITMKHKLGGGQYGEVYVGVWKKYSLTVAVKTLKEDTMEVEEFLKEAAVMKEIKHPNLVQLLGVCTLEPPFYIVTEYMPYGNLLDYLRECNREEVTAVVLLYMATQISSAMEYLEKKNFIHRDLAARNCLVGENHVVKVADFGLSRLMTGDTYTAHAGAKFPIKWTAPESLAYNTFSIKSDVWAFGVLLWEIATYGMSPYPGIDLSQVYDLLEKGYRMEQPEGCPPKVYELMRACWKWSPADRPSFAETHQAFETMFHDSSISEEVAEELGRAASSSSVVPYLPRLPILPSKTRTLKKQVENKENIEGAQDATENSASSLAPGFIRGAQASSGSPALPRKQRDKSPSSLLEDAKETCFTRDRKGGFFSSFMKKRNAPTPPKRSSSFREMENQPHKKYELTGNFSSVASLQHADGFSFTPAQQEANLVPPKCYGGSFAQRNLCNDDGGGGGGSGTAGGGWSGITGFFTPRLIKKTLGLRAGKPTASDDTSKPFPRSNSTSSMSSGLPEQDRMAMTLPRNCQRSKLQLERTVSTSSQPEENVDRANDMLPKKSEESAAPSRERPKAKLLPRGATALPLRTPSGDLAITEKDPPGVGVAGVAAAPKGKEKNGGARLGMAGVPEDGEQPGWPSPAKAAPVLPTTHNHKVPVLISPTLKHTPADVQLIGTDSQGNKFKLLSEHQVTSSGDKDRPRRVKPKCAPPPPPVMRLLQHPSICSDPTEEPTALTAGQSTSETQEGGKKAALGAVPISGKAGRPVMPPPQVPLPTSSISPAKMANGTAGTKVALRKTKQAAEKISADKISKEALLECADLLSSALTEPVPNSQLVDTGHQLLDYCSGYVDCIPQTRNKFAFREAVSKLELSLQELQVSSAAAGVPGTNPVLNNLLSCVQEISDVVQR
UniProt Q9NUJ1: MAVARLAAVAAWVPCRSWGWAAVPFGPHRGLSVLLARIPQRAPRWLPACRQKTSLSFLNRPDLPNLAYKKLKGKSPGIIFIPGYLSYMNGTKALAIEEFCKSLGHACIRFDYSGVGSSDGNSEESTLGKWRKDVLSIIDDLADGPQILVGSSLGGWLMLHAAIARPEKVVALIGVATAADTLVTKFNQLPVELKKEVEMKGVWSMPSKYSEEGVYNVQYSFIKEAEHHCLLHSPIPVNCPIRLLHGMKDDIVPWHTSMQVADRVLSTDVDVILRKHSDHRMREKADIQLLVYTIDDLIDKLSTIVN
UniProt P42765: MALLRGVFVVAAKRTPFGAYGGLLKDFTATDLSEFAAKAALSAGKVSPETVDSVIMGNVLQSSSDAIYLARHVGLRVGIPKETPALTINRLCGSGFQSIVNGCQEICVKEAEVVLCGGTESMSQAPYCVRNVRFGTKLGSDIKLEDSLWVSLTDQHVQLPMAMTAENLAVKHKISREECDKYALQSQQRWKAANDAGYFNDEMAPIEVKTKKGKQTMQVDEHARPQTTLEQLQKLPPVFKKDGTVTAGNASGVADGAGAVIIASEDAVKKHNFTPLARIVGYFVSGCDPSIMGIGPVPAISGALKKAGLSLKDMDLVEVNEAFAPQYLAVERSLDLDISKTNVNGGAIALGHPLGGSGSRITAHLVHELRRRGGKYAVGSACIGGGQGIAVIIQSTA

Compound: Cc1cc(ccc1-c1ccccc1)C(=O)N1CCCN(CC1)C(=O)CCl [compound 10]
Assay: probe-labelled cysteine peptide fold change vs DMSO (competition) (log2 fold change); higher = less target engagement (more negative = stronger competition)
Conditions: THP-1, incubation time: 4 h
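Further: competitive profiling in live THP-1 cells: cysteine peptides tagged with an iodoacetamide desthiobiotin (IA-DTB) probe, intensity after compound treatment relative to DMSO-treated cells.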

| Target | probe-labelled cysteine peptide fold change (10 µM) | probe-labelled cysteine peptide fold change (50 µM) |
| --- | --- | --- |
| AAAS_Q9NRG9_279_VWDVSTETCVPLPWFR (UniProt Q9NRG9) | 0.363 | 0.199 |
| ABI1_Q8IZP0_488_KNDDGWYEGVCNR (UniProt Q8IZP0) | 0.0255 | 0.013 |
| ACAD9_Q9H845_271_GSNTCEVHFENTK (UniProt Q9H845) | 0.0883 | 0.106 |
| ABCE1_P61221_38_LCIEVTPQSK (UniProt P61221) | -0.185 | -0.149 |
| AAK1_Q2M2I8_193_GHYVLCDFGSATNK (UniProt Q2M2I8) | 0.226 | -0.00198 |
| ABRACL_Q9P1F3_39_CANLFEALVGTLK (UniProt Q9P1F3) | 0.0698 | -0.0903 |
| ABCF2_Q9UG63_186_LAHEDAECEK (UniProt Q9UG63) | -0.104 | 0.00337 |
| ABHD15_Q6UXT9_199_GHHGCPLVSPR (UniProt Q6UXT9) | -0.202 | -0.334 |
| ACOT7_O00154_100_CVAALAR (UniProt O00154) | -0.125 | -0.0977 |
| ACAT2_Q9BWD1_360_VNIEGGAIALGHPLGASGCR (UniProt Q9BWD1) | 0.232 | 0.226 |
| ACOT8_O14734_275_ADHWMLYECESPWAGGSR (UniProt O14734) | 0.15 | 0.0534 |
| ACBD6_Q9BR61_166_NIFDYCR (UniProt Q9BR61) | 0.0331 | -0.103 |
| ACAA1_P09110_381_VNPLGGAVALGHPLGCTGAR (UniProt P09110) | 0.0101 | 0.098 |
| ACBD3_Q9H3P7_487_RDCHEEVYAGSHQYPGR (UniProt Q9H3P7) | -0.0714 | 0.129 |
| ACACA_Q13085_1396_NFDLTAIPCANHK (UniProt Q13085) | -0.104 | 0.042 |
| AARS_P49588_525_MFVEEVSTGQECGVVLDK (UniProt P49588) | -0.239 | 0.000348 |
| ACO1_P21399_50_NCDEFLVK (UniProt P21399) | -0.182 | 0.363 |
| ACADSB_P45954_385_CIEWMGGVGYTK (UniProt P45954) | 0.00276 | 0.31 |
| ABCA1_O95477_215_SEEMIQLGDQEVSELCGLPR (UniProt O95477) | -0.534 | 0.336 |
| ABCE1_P61221_65_CPFGALSIVNLPSNLEK (UniProt P61221) | -0.2 | -0.351 |
| ABCA2_Q9BZC7_1542_LPSGVGATCVLK (UniProt Q9BZC7) | -0.226 | -0.255 |

| Target | probe-labelled cysteine peptide fold change (10 µM) | probe-labelled cysteine peptide fold change (50 µM) |
| --- | --- | --- |
| ABR_Q12979_330_HVFLFTDVLLCAK (UniProt Q12979) | -0.0719 | 0.196 |
| ACAD10_Q6JQN1_197_LCLEQLGLQPSESIFLDDLGTNLK (UniProt Q6JQN1) | 0.0774 | 0.00134 |
| ACAA1_P09110_49_RTAICR (UniProt P09110) | -0.0652 | 0.0647 |
| AACS_Q86V21_15_EERPGREEILECQVMWEPDSKK (UniProt Q86V21) | -0.237 | -0.344 |
| ACAP2_Q15057_53_AFCVANK (UniProt Q15057) | -0.11 | -0.362 |
| ACACA_Q13085_1769_VSALNSVHCEHVEDEGESR (UniProt Q13085) | -0.0711 | 0.0398 |
| ABL1_P00519_100_VLGYNHNGEWCEAQTK (UniProt P00519) | 0.091 | 0.0961 |
| ABHD16A_O95870_205_KLPCQITSYLVAHTLGR (UniProt O95870) | -1.03 | -0.401 |
| AARS_P49588_187_DNFWEMGDTGPCGPCSEIHYDR (UniProt P49588) | -0.232 | 0.00452 |
| ABHD16A_O95870_544_HLHNFEATHCTPLPAQNFQMPWHL (UniProt O95870) | -0.497 | -1.15 |
| ACAT1_P24752_413_QGEYGLASICNGGGGASAMLIQKL (UniProt P24752) | -0.296 | -0.842 |
| ACO1_P21399_118_INPVCPADLVIDHSIQVDFNRR (UniProt P21399) | -0.172 | -0.162 |
| AARS_P49588_184+187_DNFWEMGDTGPCGPCSEIHYDR (UniProt P49588) | 0.108 | -0.387 |
| ACLY_P53396_845_KPASFMTSICDER (UniProt P53396) | 0.0439 | 0.129 |
| ACADSB_P45954_261_ASSTCPLTFENVK (UniProt P45954) | -0.238 | 0.0954 |
| ACO2_Q99798_332_DHLVPDPGCHYDQLIEINLSELKPHINGPFTPDLAHPVAEVGK (UniProt Q99798) | -0.228 | 0.153 |
| ACAA1_P09110_177_ARDCLIPMGITSENVAER (UniProt P09110) | -0.114 | 0.0101 |
| ABHD15_Q6UXT9_323_SLREFEEALFCHTK (UniProt Q6UXT9) | 0.105 | 0.0371 |
| AAK1_Q2M2I8_288_YSQDMHCLIR (UniProt Q2M2I8) | 0.0263 | -0.127 |
| AARS_P49588_184_DNFWEMGDTGPCGPCSEIHYDR (UniProt P49588) | -0.0131 | 0.0157 |
| ACOT11_Q8WXI4_529_RGETLCSGFCLWR (UniProt Q8WXI4) | 0.184 | -0.233 |

| Target | probe-labelled cysteine peptide fold change (10 µM) | probe-labelled cysteine peptide fold change (50 µM) |
| --- | --- | --- |
| ACOT7_O00154_288_GCVITISGR (UniProt O00154) | 0.018 | 0.201 |
| AAK1_Q2M2I8_87_MFVNNEHDLQVCK (UniProt Q2M2I8) | -0.079 | 0.0729 |
| ACAT2_Q9BWD1_65_ATVAPEDVSEVIFGHVLAAGCGQNPVR (UniProt Q9BWD1) | -0.23 | 0.0508 |
| AARS_P49588_901_ITCLCQVPQNAANR (UniProt P49588) | 0.173 | -0.279 |
| ACBD3_Q9H3P7_129_QVLMGPYNPDTCPEVGFFDVLGNDRR (UniProt Q9H3P7) | 0.105 | -0.128 |
| ABCF1_Q8NE71_655_ICIVGPNGVGK (UniProt Q8NE71) | 0.0275 | 0.233 |
| AARS2_Q5JTZ9_749_VVSVGVPVAHALDPASQAALQTSVELCCGTHLLR (UniProt Q5JTZ9) | -0.198 | -0.853 |
| ACOT2_P49753_300_GGELCLSMASFLK (UniProt P49753) | -0.0218 | 0.0138 |
| ABI1_Q8IZP0_488_NDDGWYEGVCNR (UniProt Q8IZP0) | 0.0516 | 0.311 |
| ABL2_P42684_266_CNKPTVYGVSPIHDK (UniProt P42684) | 0.117 | 0.413 |
| ACAD9_Q9H845_179_LASGEHIAAFCLTEPASGSDAASIR (UniProt Q9H845) | 0.166 | 0.316 |
| ACLY_P53396_1040_NCGSFTREEADEYIDIGALNGIFVLGR (UniProt P53396) | -0.184 | -0.00144 |
| ACBD6_Q9BR61_200_ALLHWACDR (UniProt Q9BR61) | 0.0836 | -0.0992 |
| AAAS_Q9NRG9_335_CQTGCWSPDGSR (UniProt Q9NRG9) | 0.565 | 0.657 |
| ACAD9_Q9H845_507_TVDLGLTGNHGVVHPSLADSANKFEENTYCFGR (UniProt Q9H845) | -0.136 | -0.519 |
| ABHD10_Q9NUJ1_100_ALAIEEFCK (UniProt Q9NUJ1) | -0.122 | 0.0345 |
| ABL2_P42684_415_NCLVGENHVVK (UniProt P42684) | 0.00196 | 0.0992 |
| ACAA2_P42765_116+128_EAEVVLCGGTESMSQAPYCVR (UniProt P42765) | -0.0657 | -0.464 |
| ACAT1_P24752_119_QAVLGAGLPISTPCTTINK (UniProt P24752) | -0.241 | -0.635 |
| ACADS_P16219_246_GSSTANLIFEDCR (UniProt P16219) | -0.0747 | 0.0499 |
| ACAT1_P24752_413_QGEYGLASICNGGGGASAMLIQK (UniProt P24752) | -0.164 | -1.09 |

| Target | probe-labelled cysteine peptide fold change (10 µM) | probe-labelled cysteine peptide fold change (50 µM) |
| --- | --- | --- |
| ABCC4_O15439_1226_FAHCTVLTIAHR (UniProt O15439) | -0.12 | -0.13 |
| AASDHPPT_Q9NRN7_23_WAFSCGTWLPSR (UniProt Q9NRN7) | 0.0877 | -0.0132 |
| ABR_Q12979_756_ENCMMHLLR (UniProt Q12979) | -0.114 | 0.0288 |
| AAAS_Q9NRG9_331_CQTGCWSPDGSR (UniProt Q9NRG9) | 0.0497 | 0.000481 |
| ABCE1_P61221_65_KCPFGALSIVNLPSNLEK (UniProt P61221) | -0.091 | -0.211 |
| ACAT1_P24752_196_IHMGSCAENTAK (UniProt P24752) | -0.282 | -1.22 |
| ACBD3_Q9H3P7_169_CCHLFSTYVASHK (UniProt Q9H3P7) | 0.173 | 0.131 |
| ACBD5_Q5T8D3_83_QATEGPCK (UniProt Q5T8D3) | 0.219 | 0.056 |
| ABHD10_Q9NUJ1_229+239_EAEHHCLLHSPIPVNCPIR (UniProt Q9NUJ1) | 0.00339 | 0.027 |
| ACO1_P21399_392_DFESCLGAK (UniProt P21399) | -0.168 | -0.169 |
| ACBD3_Q9H3P7_487_DCHEEVYAGSHQYPGR (UniProt Q9H3P7) | -0.106 | 0.0813 |
| AARS_P49588_723_VVSIGVPVSELLDDPSGPAGSLTSVEFCGGTHLR (UniProt P49588) | 0.243 | 0.318 |
| ABCF3_Q9NUQ8_522_ICVVGENGAGK (UniProt Q9NUQ8) | -0.14 | 0.0306 |
| ACAA2_P42765_116_EAEVVLCGGTESMSQAPYCVR (UniProt P42765) | -0.0523 | 0.00696 |
| ACLY_P53396_633_GVTIIGPATVGGIKPGCFK (UniProt P53396) | -0.00834 | 0.0362 |
| ABCF2_Q9UG63_388_TLSFYFPPCGK (UniProt Q9UG63) | 0.0551 | 0.0851 |
| ACO2_Q99798_448+451_DLGGIVLANACGPCIGQWDRK (UniProt Q99798) | -0.143 | -0.611 |
| ABHD17B_Q5VST6_250_CQRPVEPLWVEGAGHNDVELYGQYLER (UniProt Q5VST6) | 0.198 | 0.147 |
| ACAA1_P09110_123_QCSSGLQAVASIAGGIR (UniProt P09110) | -0.136 | -0.197 |
| AARS_P49588_947_NVGCLQEALQLATSFAQLR (UniProt P49588) | 0.375 | -0.0464 |
